PubChem BioAssay AID652272, Drosophila RNAi Screening Center | 2013
The deposit covers about 21,000 reagents; below is a random part of those with a known target gene and a result. Of all reagents, 503 (2.4%) got an active call. 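Raw plate light values, not normalised; calls rest on replicate z-scores that were not deposited; hits include reporter decreases as well as increases.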 Names joined by + are all predicted targets of the reagent. Not stated in the record: the amount of reagent, the time to read-out.

Aim: 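Genome-wide knock-down search for components of Hedgehog signalling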 (primary screen)
System: Drosophila clone 8 (Cl8) cells
Reagents: long dsRNA against Drosophila genes
Measurement: 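Plate reader light from a firefly reporter under a ptc promoter fragment that responds to Hedgehog, with Renilla light as transfection reference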
Scale: firefly Hh reporter signal: higher = more ptc reporter light; Renilla reference signal: higher = more Renilla control light
Rule for the call: 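Hit when the z-score averaged over two replicates is under -2 or over +3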
Meaning of the calls: active = hit: reporter lowered or raised; inactive = not a hit

The first 6 entries, ahead of the listing:
Gene	dsRNA	firefly Hh reporter signal, replicate 1	firefly Hh reporter signal, replicate 2	firefly Hh reporter signal, replicate 3	Renilla reference signal, replicate 1	Renilla reference signal, replicate 2	outcome
smo	DRSC00837	11381	10996		3385	2768	active
RluA-2	DRSC02939	72961	55752		3250	2505	inactive
CG42534	DRSC14722	79162	64896		2967	1545	inactive
CG42534	DRSC14759	82934	55824		3096	1401	inactive
CG42534	DRSC16072	1.21e5	99682		4793	2372	inactive
CG33722 + CG18749	DRSC12674	1.36e5			3081		inactive

The listing, repeating the preview:
Gene	dsRNA	firefly Hh reporter signal, replicate 1	firefly Hh reporter signal, replicate 2	firefly Hh reporter signal, replicate 3	Renilla reference signal, replicate 1	Renilla reference signal, replicate 2	outcome
smo	DRSC00837	11381	10996		3385	2768	active
RluA-2	DRSC02939	72961	55752		3250	2505	inactive
CG42534	DRSC14722	79162	64896		2967	1545	inactive
CG42534	DRSC14759	82934	55824		3096	1401	inactive
CG42534	DRSC16072	1.21e5	99682		4793	2372	inactive
CG33722 + CG18749	DRSC12674	1.36e5			3081		inactive
CG33722 + CG18749	DRSC15386	83124	96669		3179	2837	inactive
CG10660	DRSC09769	87191	16183	12555	1847	248	inactive
CG3652	DRSC00624	1.69e5	71056		4225	7673	inactive
Vps45	DRSC16398	70500	1.03e5		2746	2860	inactive
CG43116	DRSC13737	44448	1.03e5		11127	2908	inactive
bw	DRSC04005	1.40e5	2.16e5		3187	9680	inactive
bw	DRSC04677	86096	58301		3164	2395	inactive
CG17600	DRSC20638	1.41e5	3.02e5		4642	13480	inactive
CG17600	DRSC20640	57594	2.41e5		2336	11088	inactive
Apl	DRSC10350	1.44e5			5000	4372	inactive
CG32262	DRSC08165	98691	1.09e5		5111	4484	inactive
CG1958	DRSC18196	1.00e5	2.59e5		3512	9863	inactive
CG5676	DRSC02875	1.21e5	50868		2861	4425	inactive
Dbp73D	DRSC11142	83430	44360		4364	1858	inactive
CG15646	DRSC19682	55888	2.50e5		2205	10070	inactive
CG13063	DRSC09946	1.95e5			2327	5480	inactive
Trim9	DRSC02242	86506	52743		2164	4805	inactive
Aatf	DRSC02131	1.01e5	58680		2576	6464	inactive
CG10347	DRSC19352	69651	2.06e5		2124	7400	inactive
CG7737	DRSC07033	84434	75321		3245	2588	inactive
Nsun5	DRSC15835	99984	76761		4219	3008	inactive
Nph	DRSC16342	1.40e5	1.47e5		5001	3975	inactive
bon	DRSC16914	5.88e5	1.22e5		31113	2026	inactive
Rtnl1	DRSC00851	5.97e5	2.55e5		28036	10150	inactive
Rtnl1	DRSC02684	1.71e5	1.28e5		6727	5514	inactive
Rtnl1	DRSC03122	71570	53457		3953	2139	inactive
Capr	DRSC10346	1.29e5			4986	3880	inactive
CG1971	DRSC15406	82285	94058		1642	2800	inactive
CG42382	DRSC07671	97429	53984		2144	4608	inactive
CG10339	DRSC04065	74241	36464		1580	4003	inactive
tna	DRSC09053	1.27e5	2.73e5		7549	9832	inactive
tna	DRSC10937	87809	52948	25307	6961	2885	inactive
trn	DRSC11407	33851	55596	66416	6075	4217	inactive
bai	DRSC14388	5.41e5	1.43e5		29224	4128	inactive
dysc	DRSC10273	28317	69856	4.10e5	3088	3451	inactive
dysc	DRSC11040	47555	89244	43704	5242	2972	inactive
CG7685	DRSC16285	5.50e5	80562		29269	2736	inactive
CG6503	DRSC16056	7.81e5	1.34e5		38101	625	inactive
GlcAT-P	DRSC10603	1.02e5	95769		4677	3984	inactive
GlcAT-P	DRSC10604	71367	36976	49869	5555	3189	inactive
CG2201	DRSC03721	95744	53324		3355	2141	inactive
IntS8	DRSC07417	1.22e5	87200		4920	3434	inactive
CG14441	DRSC17934	34699	1.19e5		1565	5184	inactive
CG7272	DRSC10795	1.10e5			3355	2896	inactive
Lcp1Psi	DRSC05105	91797	3.34e5		741	14240	inactive
CG11294	DRSC17777	57686	1.30e5		2004	5714	inactive
CG11378	DRSC18627	64280	1.47e5		1914	6153	inactive
ACXB	DRSC00845	95479	49962		2423	4352	inactive
CG14546	DRSC14890	5.59e5	86553		27831	6779	inactive
CG42245 + MEP-1	DRSC07993	1.17e5	2.13e5		3592	10269	inactive
CG42245 + MEP-1	DRSC08274	2.29e5	1.68e5		8904	6944	inactive
